Source: publication PMC3679034
No constants are given. Whether binding was seen depends on the method and setting. In cells and extracts the contact can be indirect. Some entries that bind do so weakly or less than the wild type. Sequences can lack the tags named with a protein.

Molecular target: T1, FLAG-GLUT1 (UniProt P11167)
T1 sequence: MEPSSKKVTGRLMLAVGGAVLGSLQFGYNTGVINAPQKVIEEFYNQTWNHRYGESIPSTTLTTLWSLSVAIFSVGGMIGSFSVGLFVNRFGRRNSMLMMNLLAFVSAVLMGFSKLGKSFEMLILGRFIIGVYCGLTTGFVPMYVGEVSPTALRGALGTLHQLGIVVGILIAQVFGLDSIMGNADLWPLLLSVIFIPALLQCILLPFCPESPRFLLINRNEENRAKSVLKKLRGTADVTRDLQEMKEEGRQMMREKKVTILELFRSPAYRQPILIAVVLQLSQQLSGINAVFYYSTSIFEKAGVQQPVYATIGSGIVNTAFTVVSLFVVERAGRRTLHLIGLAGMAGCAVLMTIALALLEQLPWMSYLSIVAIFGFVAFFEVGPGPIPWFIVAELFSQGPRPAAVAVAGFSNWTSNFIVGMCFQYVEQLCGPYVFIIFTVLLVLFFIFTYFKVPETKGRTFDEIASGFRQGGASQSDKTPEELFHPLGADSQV
Assay: co-IP; lysates of L6 myoblasts transiently transfected with FLAG-GLUT1 constructs, treated for one hour with vehicle (DMSO), 6 µM CP466722 (ATM inhibitor) or 1 µM doxorubicin (ATM activator); FLAG antibodies overnight at 4°C, protein A sepharose 4 hours at 4°C, five washes with lysis buffer (50 mM HEPES pH 7.4, 150 mM NaCl, 1% Triton X-100); Western blot for GIPC1 and stomatin

B1: Gα-interacting protein-interacting protein, C-terminus (GIPC1) (protein, UniProt Q9Z254 1-333)
chain: MPLGLGRRKKAPPLVENEEAEPSRSGLGVGEPGPLGGSGAGESQMGLPPPPASLRPRLVFHTQLAHGSPTGRIEGFTNVKELYGKIAEAFRLPAAEVMFCTLNTHKVDMDKLLGGQIGLEDFIFAHVKGQRKEVEVFKSEDALGLTITDNGAGYAFIKRIKEGSVIDHIQLISVGDMIEAINGQSLLGCRHYEVARLLKELPRGRTFTLKLTEPRKAFDMISQRSSGGHPGSGPQLGTGRGTLRLRSRGPATVEDLPSAFEEKAIEKVDDLLESYMGIRDTELAATMVELGKDKRNPDELAEALDERLGDFAFPDEFVFDVWGAIGDAKVGRY
- binding: binds
